Test results: the supplement of paper PMC3334620
Over roughly 33,000 sequences, “E-score (-0.5 to 0.5)” has its median near -0.016; the highest 2% begin near 0.3. This is one part of the list.

biological target: T1, Yer184c (UniProt P39961); assay: PBM E-score (8-mer binding enrichment) (E-score (-0.5 to 0.5)); higher = stronger / more preferred TF binding; settings: protein concentration: 100 nM; construct: GST-full length
T1 sequence: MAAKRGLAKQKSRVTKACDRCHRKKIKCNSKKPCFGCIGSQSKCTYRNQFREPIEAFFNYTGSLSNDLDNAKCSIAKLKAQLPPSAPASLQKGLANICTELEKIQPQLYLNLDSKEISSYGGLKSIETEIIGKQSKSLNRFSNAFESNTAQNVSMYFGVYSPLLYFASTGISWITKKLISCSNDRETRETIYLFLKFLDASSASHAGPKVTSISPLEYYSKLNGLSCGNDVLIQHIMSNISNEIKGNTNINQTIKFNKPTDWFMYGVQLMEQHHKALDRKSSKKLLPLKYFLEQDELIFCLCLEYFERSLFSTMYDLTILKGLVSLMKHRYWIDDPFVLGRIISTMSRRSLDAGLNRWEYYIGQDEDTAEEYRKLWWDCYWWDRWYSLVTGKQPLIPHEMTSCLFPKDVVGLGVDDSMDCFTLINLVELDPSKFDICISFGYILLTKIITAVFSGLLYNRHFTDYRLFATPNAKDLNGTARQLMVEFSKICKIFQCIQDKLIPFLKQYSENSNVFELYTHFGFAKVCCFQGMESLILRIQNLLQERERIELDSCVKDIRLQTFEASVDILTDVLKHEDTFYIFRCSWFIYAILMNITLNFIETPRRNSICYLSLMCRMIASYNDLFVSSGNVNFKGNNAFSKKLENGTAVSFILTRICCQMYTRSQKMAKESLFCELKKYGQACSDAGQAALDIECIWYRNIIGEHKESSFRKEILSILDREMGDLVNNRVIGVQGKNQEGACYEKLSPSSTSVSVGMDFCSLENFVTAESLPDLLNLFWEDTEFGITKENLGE
Method in brief: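 Universal all-10-mer Agilent arrays, fresh or stripped once, were converted to double-stranded form by primer extension. GST-tagged yeast transcription factors from PURExpress in vitro transcription/translation, full-length or DNA-binding domain only, were applied at about 100-200 nM and detected with fluorescent anti-GST. After masliner normalisation, the Universal PBM Analysis Suite scored each ungapped eight-base word together with its reverse complement by E-score.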

Sequence	PBM E-score
GTCGTCCA	-0.137
ACATATGA	0.0853
AGGGTTAG	-0.213
CGGACTCC	0.112
AAGACCGG	0.0893
CACGATCG	-0.0228
AATGGGAC	-0.291
GTGAGCAC	-0.0931
CAGGTGCA	-0.0645
CAACATAA	0.122
CAAATCGG	0.247
CTTTGTTA	0.26
CACGCTCG	-0.0162
AGCGCCCC	-0.325
ACCCGTCA	-0.22
AGTGCAAA	0.219
ATTATGAC	0.137
CGGGACCC	-0.0643
CTTGAGGA	-0.0309
CCGCCATC	-0.206
TATCTACA	0.167
GAGGTAAC	0.0143

Sequence	PBM E-score
ACAAGAAC	0.298
GTTGATTA	0.196
CAGCACAA	0.0854
ACGGGGCT	-0.311
CTAATCAG	-0.00548
ATAGTCGC	-0.0857
CAACCCTA	-0.161
CGTGGCTC	-0.2
ATGTGAGA	-0.0904
ATACTGTG	-0.16
ATTACTCG	0.239
ATCATTAC	0.111
ACCACTCA	-0.144
CCGCATTC	0.136
CCTCGCCC	-0.125
AAGCCAGC	-0.114
CTTCTATC	-0.0483
CCGGCCTA	0.28
CGCGGCCA	-0.00946
GTAGCTTA	0.0649
CATCCTCC	-0.13
AGAACTTG	0.0365

Sequence	PBM E-score
AATGGCTG	-0.0897
ATACTCAC	-0.0138
CGTACATC	-0.231
ATGAGGGG	-0.267
GAGTAAGC	-0.122
ATAACGGC	0.147
CTGTCGCA	-0.138
ATTGCTTA	0.137
ACCAGAAT	-0.0372
ACACATCG	-0.136
CATAAACG	0.134
GGCGTCAA	0.0188
ACCCGCAT	0.0979
ATTTTGTG	0.257
GCCCGCCA	-0.0831
CCACAGCG	-0.0604
ATTTGCAC	0.0198
CAGCTTAG	-0.183
GATTAGAC	-0.0387
GCACATGC	-0.0502
GGTGCTAC	-0.298
CCGGATTA	0.352

Given bar-delimited: part of the list above.
Sequence | PBM E-score
ATTTGCAC | 0.0198
CAGCTTAG | -0.183
GATTAGAC | -0.0387

Following part:

Sequence	PBM E-score
AGCGGACC	-0.00047
CTCTACAA	-0.08
GGGTCAGA	-0.136
AGATACAA	0.255
CCAACTGC	-0.147
AAGCGGGA	-0.0907
ACAGCGGA	0.0362
CACCGAGA	-0.212
AACCGCAC	0.00345
CGCCCCAG	-0.135
CCTTGATC	0.0935
ACATGAAG	0.00621
CATCATTA	0.188
CACAATGG	0.0307
TTATATAA	0.225
GAGCATGC	-0.118
AGCATATA	0.142
AGCGGCGG	0.222
AAGTCCCG	-0.0144
AAATTGTC	0.0962
